According to article PMC9097830:
Results are given in words; binding and its absence hold for the method and conditions named. For some of these results: In cells and extracts the contact can be indirect. Some binding calls cover weakened binding; strength is not graded here. For some of these results: Where a sequence is shown, tags or fusion partners need not be part of it.

Protein sequences, listed by entry. Tags and fused reporters are not part of them.
UniProt Q04206: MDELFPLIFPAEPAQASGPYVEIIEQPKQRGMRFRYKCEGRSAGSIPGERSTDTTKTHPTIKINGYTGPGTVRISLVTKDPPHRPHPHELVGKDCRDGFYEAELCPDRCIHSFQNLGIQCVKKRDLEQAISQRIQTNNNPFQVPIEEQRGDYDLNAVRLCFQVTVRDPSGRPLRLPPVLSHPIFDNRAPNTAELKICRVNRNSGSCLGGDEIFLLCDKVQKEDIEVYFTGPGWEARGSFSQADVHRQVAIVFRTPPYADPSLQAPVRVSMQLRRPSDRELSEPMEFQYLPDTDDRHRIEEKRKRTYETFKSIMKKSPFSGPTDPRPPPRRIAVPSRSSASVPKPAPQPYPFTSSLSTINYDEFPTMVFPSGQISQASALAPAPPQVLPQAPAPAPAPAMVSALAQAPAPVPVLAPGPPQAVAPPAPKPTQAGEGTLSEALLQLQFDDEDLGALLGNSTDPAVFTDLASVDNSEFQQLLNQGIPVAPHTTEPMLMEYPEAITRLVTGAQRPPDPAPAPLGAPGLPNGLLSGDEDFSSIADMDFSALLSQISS

Legend:
GST‐NAA10 (human) = molecular target: T1, GST‐NAA10 (human) (UniProt P41227); experiment: pull-down; 2 μg His‐RelA/p65 incubated with 2 μg GST‐NAA10 or GST plus glutathione beads in binding buffer at 4°C overnight; Western blot with anti‐His and anti‐GST; both purified
T1 sequence: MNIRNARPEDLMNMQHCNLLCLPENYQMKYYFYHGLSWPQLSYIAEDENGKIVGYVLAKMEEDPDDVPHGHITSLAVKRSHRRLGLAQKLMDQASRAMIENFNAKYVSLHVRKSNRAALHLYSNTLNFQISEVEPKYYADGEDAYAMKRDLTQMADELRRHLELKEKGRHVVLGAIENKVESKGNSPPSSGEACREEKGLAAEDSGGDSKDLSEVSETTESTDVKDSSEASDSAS

[1] = molecular target: RelA/p65 subunit of NF‐κB (human (endogenous in CAL 27 and SCC-15)) (UniProt Q04206); experiment: co-IP; CAL 27 and SCC‐15 lysates (1 mg total protein) with anti‐RelA/p65 antibody (2 μg) 16 h at 4°C, Protein A/G Sepharose beads, normal mouse IgG as negative control; Western blot with anti‐RelA/p65 and anti‐NAA10
[2] = molecular target: RelA/p65 subunit of NF‐κB (human (endogenous in CAL 27 and SCC-15)) (UniProt Q04206); experiment: co-IP; cytoplasmic protein (500 µg) of fractionated CAL 27 and SCC‐15 cells immunoprecipitated with an anti‐p65 antibody; Western blot with anti‐NAA10 and anti‐RelA/p65
His–p65 (human) = His–p65 (human) (UniProt Q04206); experiment: co-IP; V5–NAA10 and His–p65 cotransfected in 293T cells; reciprocal immunoprecipitation and immunoblotting with the indicated antibodies

Molecule: His‐RelA/p65 (from UniProt Q04206 1-551)
- binding (GST‐NAA10 (human)): binds

B1: N‐α‐Acetyltransferase 10 (protein, UniProt P41227 1-235)
chain: T1 sequence
- binding [1]: binds
- binding [2]: binds

B2: V5–NAA10 (protein, UniProt P41227 1-235)
chain: T1 sequence
- binding (His–p65 (human)): binds
